# Test results: the supplement of paper PMC4604168 (melanoma cell lines)
# The list shows a part of the results. Single values are uncertain, as repeats are few or missing.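 The apoptosis fraction was the count of cleaved-PARP antibody-stained nuclei relative to all DNA-stained nuclei, imaged in 1,536-well plates. Screening doses were set so most cells survived, and baseline and induced cleaved-PARP levels vary greatly across cell lines.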
# Tested on: MEL-HO
# Assay: cleaved PARP positive nuclei fraction relative to DMSO control; melanoma cells; higher = more apoptosis
# Settings: library dose: low library concentration; 72 h
row,Compound,cleaved PARP positive nuclei fraction
1,"C[C@@H](N)c1ccc(C(=O)Nc2ccnc3[nH]ccc23)cc1 + Cn1c(=O)n(-c2ccc(C(C)(C)C#N)cc2)c2c3cc(-c4cnc5ccccc5c4)ccc3ncc21 [NVP-BEZ235] (first compound 0.4 µM, partner dose 0.004 µM)",93.6%
2,"Cn1cnc2c(F)c(Nc3ccc(Br)cc3Cl)c(C(=O)NOCCO)cc21 [selumetinib] + Cn1c(Nc2ccc(C(F)(F)F)cc2)nc2cc(Oc3ccnc(-c4ncc(C(F)(F)F)[nH]4)c3)ccc21 [CHIR265] (first compound 0.015 µM, partner dose 0.08 µM)",168%
3,"NC1(c2ccc(-c3nc4ccn5c(=O)[nH]nc5c4cc3-c3ccccc3)cc2)CCC1 + Clc1ccc(Nc2nnc(Cc3ccncc3)c3ccccc23)cc1 [vatalanib] (first compound 0.4 µM, partner dose 2 µM)",105%
4,"CCCCCCCCc1ccc(CCC(N)(CO)CO)cc1 [fingolimod] + OCc1c[nH]c2ccccc12 [Indole-3-carbinol] (first compound 2 µM, partner dose 0.8 µM)",33.4%
5,"Cn1sc(=O)n(Cc2ccccc2)c1=O + Clc1ccc(Nc2nnc(Cc3ccncc3)c3ccccc23)cc1 [vatalanib] (first compound 0.4 µM, partner dose 2 µM)",108%
6,"NC(=O)c1ccc(N(C(N)=O)c2c(F)cccc2F)nc1-c1ccc(F)cc1F + CC(=O)c1c(C)c2cnc(Nc3ccc(N4CCNCC4)cn3)nc2n(C2CCCC2)c1=O [palbociclib] (first compound 0.4 µM, partner dose 0.04 µM)",134%
